# Measurements: the supplement of paper PMC9549374
# Some of the results follow. No stated cut-off is given here; in the data, active = 2-fold of DMSO or more and inactive = the rest. Single values of this set are uncertain. Some low values are a fixed figure set by the source, not a measured ratio.
# Test system: CM7/1-hgem mouse ES cell-derived cardiomyocytes
# Assay: maximal number of mAG-hGem(1/110)-positive cardiomyocytes over 96 h, fold-change vs DMSO; higher = more cardiomyocyte cell cycle activity
# Details: 1 µM; 96 (max over 12 h time points) h
row,SMILES,maximal number
1,CC(=O)N(CC(O)CO)c1c(I)c(C(=O)NCC(O)CO)c(I)c(C(=O)NCC(O)CO)c1I (configuration not stated),inactive: 1
2,CC1(C)[C@H](C(=O)O)N2C(=O)C[C@H]2S1(=O)=O,inactive: 1
3,Cc1cc(-c2ccccc2)nnc1NCCN1CCOCC1,inactive: 0.5
4,O=C(O)C[C@H](O)C[C@H](O)/C=C/c1c(C2CC2)nc2ccccc2c1-c1ccc(F)cc1,inactive: 1
5,C=CCc1ccccc1OCC(O)CNC(C)C (configuration not stated),inactive: 0.5
6,C=CC(C1=CC(=O)C(OC)=CC1=O)c1ccc(O)cc1 (configuration not stated),inactive: 1
7,CCCCC[C@H](CC(=O)NO)C(=O)N[C@H](C(=O)N1CCC[C@H]1CO)C(C)C,inactive: 1
8,CC1(C)CC[C@]2(C)CC[C@]3(C)C(=CC[C@@H]4[C@@]5(C)CC[C@H](O)C(C)(C)[C@@H]5CC[C@]43C)[C@@H]2C1 [beta-AMYRIN],inactive: 0
9,C[C@@H]1O[C@@H](O[C@H]2[C@H](Oc3cc(O)c4c(=O)cc(-c5ccc(O)cc5)oc4c3)O[C@H](CO)[C@@H](O)[C@@H]2O)[C@H](O)[C@H](O)[C@H]1O,inactive: 1
10,C[C@H]1COc2c(C3(N)CC3)c(F)cc3c(=O)c(C(=O)O)cn1c23,inactive: 1
11,C=C[C@@]1(C)CC(=O)[C@@]2(O)[C@](C)(O1)[C@@H](O)[C@@H](O)C1C(C)(C)CC[C@H](O)[C@@]12C (some centres not stated),inactive: 1
12,CC(C)c1ccc2oc3nc(N)c(C(=O)O)cc3c(=O)c2c1,inactive: 1
13,C[C@]12CC[C@@H]3c4ccc(O)cc4CC[C@H]3[C@@H]1C[C@H](O)[C@@H]2O,inactive: 1
14,CCOc1nc2cccc(C(=O)O)c2n1Cc1ccc(-c2ccccc2-c2nnn[nH]2)cc1,inactive: 1
15,COc1ccc(/C=C/C(=O)O)cc1OC,inactive: 0.5
16,CC(C)(C#N)c1cc(Cn2cncn2)cc(C(C)(C)C#N)c1,inactive: 1
17,CC(=O)CC(c1ccc([N+](=O)[O-])cc1)c1c(O)c2ccccc2oc1=O (configuration not stated),inactive: 1
18,Nc1nc2c(ncn2COC(CO)CO)c(=O)[nH]1,inactive: 1
19,CC(=O)OCC(=O)[C@@]12N=C(C)O[C@@H]1C[C@H]1[C@@H]3CCC4=CC(=O)C=C[C@]4(C)[C@H]3[C@@H](O)C[C@@]12C,inactive: 1

# Look-ups from above.
# Entry for `C[C@H]1COc2c(C3(N)CC3)c(F)cc3c(=O)c(C(=O)O)cn1c23` under maximal number: inactive: 1
# Entry for `Cc1cc(-c2ccccc2)nnc1NCCN1CCOCC1` under maximal number: inactive: 0.5

# Additional entries:

row,SMILES,maximal number
1,Cc1cc(O)cc(O)c1C(=O)O,inactive: 1
2,COC(=O)CC[C@@H](C)[C@H]1CC[C@H]2[C@@H]3CC[C@@H]4C[C@H](O)CC[C@]4(C)[C@H]3C[C@H](O)[C@]12C,inactive: 1
3,COc1c2ccoc2nc2c(OC)c(OCC(O)C(C)(C)O)ccc12 (configuration not stated),inactive: 1
4,C[C@]12CCC(=O)C=C1[C@@H]1C[C@@H]1[C@H]1[C@@H]3[C@@H]4C[C@@H]4[C@@]4(CCC(=O)O4)[C@@]3(C)CC[C@@H]12,inactive: 1
5,NCCC[C@H](N)C(=O)O,inactive: 1
6,C=CCCCCCCCCCCCC(O)CC(O)COC(C)=O (configuration not stated),inactive: 0
7,CC1(C)[C@H]2CC[C@]1(CS(=O)(=O)O)C(=O)C2=Cc1ccc(C=C2C(=O)[C@@]3(CS(=O)(=O)O)CC[C@@H]2C3(C)C)cc1,inactive: 1
8,C=C1CCC(C2CC(=O)OC2=O)C(=O)CCC2C1CC2(C)C (configuration not stated),inactive: 1
9,CC(C)=CCC[C@@H](C)[C@@H]1CC[C@]2(C)C3=C(CC[C@@]12C)[C@@]1(C)CC[C@H](O)C(C)(C)[C@@H]1CC3,inactive: 1
10,CC[C@H](C)[C@H]1O[C@]2(C=C[C@@H]1C)C[C@@H]1C[C@@H](C/C=C(\C)[C@@H](O[C@H]3C[C@H](OC)[C@@H](O[C@H]4C[C@H](OC)[C@@H](O)[C@H](C)O4)[C@H](C)O3)[C@@H](C)/C=C/C=C3\CO[C@@H]4[C@H](OC)C(C)=C[C@@H](C(=O)O1)[C@]34O)O2,inactive: 1
11,NC(=O)NCCC[C@H](N)C(=O)O,inactive: 0
12,CCc1nn(CCCN2CCN(c3cccc(Cl)c3)CC2)c(=O)n1CCOc1ccccc1,inactive: 1
13,COC(=O)Nc1nc2cc(Sc3ccccc3)ccc2[nH]1,inactive: 1
14,CC(=O)O[C@H]1C[C@@H](OC(C)=O)C(C)(C)[C@@H]2CC(=O)[C@]3(C)[C@H](CC[C@@]4(C)[C@H](c5ccoc5)OC(=O)[C@H]5O[C@]543)[C@@]12C,inactive: 1
15,CC1=CC(=O)c2ccccc2C1=O,inactive: 1
16,O=C(Oc1ccccc1C(=O)O)c1ccccc1O,inactive: 1
17,CC(=O)Nc1cccc(O)c1,inactive: 1
18,CC1(C)CC23C(=O)CCC(O)C2(C)CCC13 (configuration not stated),inactive: 1
